Values are animals surviving of animals treated; these mice carried no tumour. Counts of survivors are from the toxicity check (mostly the fifth day) where no day follows; animals may have died later. Schedule codes are those of the source, read here as Q, the interval in days (D) or hours (H), X, the number of doses. Some molecules as drawn cover several salts, stereoisomers or complexes of the source; a dose is that of the sample tested. Additions like (4×) count equal records among those shown. Some entries hold several experiments; their values stand side by side, smallest first.
Test system: CD2F1 mice, nontumored, toxicity/survival
Experiment: NCI In Vivo Anticancer Drug Screen. Data for tumor model Nontumored Animals (Toxicity Test) in CD2F1 (CDF1) mice

SMILES: O=C1c2ccccc2C(=O)c2c(NCCNCCO)ccc(NCCNCCO)c21
- survivor count (dose: 0.25 mg/kg/injection, schedule: Q01DX005 (iv), vehicle: clinical formulation): 8 of 8
- survivor count (dose: 0.25 mg/kg/injection, schedule: Q01DX005 (iv), vehicle: water): 8 of 8
- survivor count (dose: 0.25 mg/kg/injection, schedule: Q01DX009 (ip), vehicle: clinical formulation): 8 of 8
- survivor count (dose: 0.25 mg/kg/injection, schedule: Q01DX009 (ip), vehicle: water): 8 of 8
- survivor count (dose: 0.5 mg/kg/injection, schedule: Q01DX005 (iv), vehicle: clinical formulation): 8 of 8
- survivor count (dose: 0.5 mg/kg/injection, schedule: Q01DX005 (iv), vehicle: water): 8 of 8
- survivor count (dose: 0.5 mg/kg/injection, schedule: Q01DX009 (ip), vehicle: clinical formulation): 8 of 8
- survivor count (dose: 0.5 mg/kg/injection, schedule: Q01DX009 (ip), vehicle: water): 8 of 8
- survivor count (dose: 1.0 mg/kg/injection, schedule: Q01DX005 (iv), vehicle: clinical formulation): 8 of 8
- survivor count (dose: 1.0 mg/kg/injection, schedule: Q01DX005 (iv), vehicle: water): 8 of 8
- survivor count (dose: 1.0 mg/kg/injection, schedule: Q01DX009 (ip), vehicle: clinical formulation): 8 of 8
- survivor count (dose: 1.0 mg/kg/injection, schedule: Q01DX009 (ip), vehicle: water): 8 of 8
- survivor count (dose: 2.0 mg/kg/injection, schedule: Q01DX005 (iv), vehicle: clinical formulation): 8 of 8
- survivor count (dose: 2.0 mg/kg/injection, schedule: Q01DX005 (iv), vehicle: water): 7 of 7
- survivor count (dose: 2.0 mg/kg/injection, schedule: Q01DX009 (ip), vehicle: clinical formulation): 8 of 8
- survivor count (dose: 2.0 mg/kg/injection, schedule: Q01DX009 (ip), vehicle: water): 7 of 7
- survivor count (dose: 4.0 mg/kg/injection, schedule: Q01DX005 (iv), vehicle: clinical formulation): 8 of 8
- survivor count (dose: 4.0 mg/kg/injection, schedule: Q01DX005 (iv), vehicle: water): 8 of 8
- survivor count (dose: 4.0 mg/kg/injection, schedule: Q01DX009 (ip), vehicle: clinical formulation): 8 of 8
- survivor count (dose: 4.0 mg/kg/injection, schedule: Q01DX009 (ip), vehicle: water): 8 of 8
- survivor count (dose: 6.0 mg/kg/injection, schedule: Q01DX001 (iv), vehicle: other): 10 of 10
- survivor count (dose: 6.01 mg/kg/injection, schedule: Q01DX001 (iv), vehicle: acid diluted with saline): 10 of 10
- survivor count (dose: 8.0 mg/kg/injection, schedule: Q01DX001 (iv), vehicle: other): 10 of 10
- survivor count (dose: 8.0 mg/kg/injection, schedule: Q01DX001 (iv), vehicle: saline): 10 of 10
- survivor count (dose: 8.0 mg/kg/injection, schedule: Q01DX005 (iv), vehicle: clinical formulation): 8 of 8
- survivor count (dose: 8.0 mg/kg/injection, schedule: Q01DX005 (iv), vehicle: water): 8 of 8
- survivor count (dose: 8.0 mg/kg/injection, schedule: Q01DX009 (ip), vehicle: clinical formulation): 8 of 8
- survivor count (dose: 8.0 mg/kg/injection, schedule: Q01DX009 (ip), vehicle: water): 8 of 8
- survivor count (dose: 8.01 mg/kg/injection, schedule: Q01DX001 (iv), vehicle: acid diluted with saline): 10 of 10 (2×)
- survivor count (dose: 8.01 mg/kg/injection, schedule: Q01DX001 (iv), vehicle: saline): 10 of 10
- survivor count (dose: 10.67 mg/kg/injection, schedule: Q01DX001 (iv), vehicle: acid diluted with saline): 10 of 10 (2×)
- survivor count (dose: 10.67 mg/kg/injection, schedule: Q01DX001 (iv), vehicle: saline): 10 of 10
- survivor count (dose: 10.7 mg/kg/injection, schedule: Q01DX001 (iv), vehicle: other): 10 of 10
- survivor count (dose: 10.7 mg/kg/injection, schedule: Q01DX001 (iv), vehicle: saline): 9 of 10 and 10 of 10
- survivor count (dose: 14.2 mg/kg/injection, schedule: Q01DX001 (iv), vehicle: other): 10 of 10
- survivor count (dose: 14.2 mg/kg/injection, schedule: Q01DX001 (iv), vehicle: saline): 10 of 10
- survivor count (dose: 14.24 mg/kg/injection, schedule: Q01DX001 (ip), vehicle: saline): 10 of 10
- survivor count (dose: 14.24 mg/kg/injection, schedule: Q01DX001 (iv), vehicle: acid diluted with saline): 9 of 10 and 10 of 10
- survivor count (dose: 14.24 mg/kg/injection, schedule: Q01DX001 (iv), vehicle: saline): 10 of 10
- survivor count (dose: 16.0 mg/kg/injection, schedule: Q01DX005 (iv), vehicle: clinical formulation): 6 of 8
- survivor count (dose: 16.0 mg/kg/injection, schedule: Q01DX005 (iv), vehicle: water): 8 of 8
- survivor count (dose: 16.0 mg/kg/injection, schedule: Q01DX009 (ip), vehicle: clinical formulation): 8 of 8
- survivor count (dose: 16.0 mg/kg/injection, schedule: Q01DX009 (ip), vehicle: water): 7 of 8
- survivor count (dose: 18.95 mg/kg/injection, schedule: Q01DX001 (ip), vehicle: saline): 10 of 10
- survivor count (dose: 18.98 mg/kg/injection, schedule: Q01DX001 (iv), vehicle: acid diluted with saline): 10 of 10 (2×)
- survivor count (dose: 18.98 mg/kg/injection, schedule: Q01DX001 (iv), vehicle: saline): 10 of 10
- survivor count (dose: 19.0 mg/kg/injection, schedule: Q01DX001 (iv), vehicle: other): 10 of 10
- survivor count (dose: 19.0 mg/kg/injection, schedule: Q01DX001 (iv), vehicle: saline): 10 of 10
- survivor count (dose: 23.3 mg/kg/injection, schedule: Q01DX001 (ip), vehicle: acid diluted with saline): 10 of 10
- survivor count (dose: 23.3 mg/kg/injection, schedule: Q01DX001 (sc), vehicle: acid diluted with saline): 10 of 10
- survivor count (dose: 25.3 mg/kg/injection, schedule: Q01DX001 (iv), vehicle: other): 10 of 10
- survivor count (dose: 25.3 mg/kg/injection, schedule: Q01DX001 (iv), vehicle: saline): 10 of 10
- survivor count (dose: 25.31 mg/kg/injection, schedule: Q01DX001 (ip), vehicle: saline): 10 of 10
- survivor count (dose: 25.31 mg/kg/injection, schedule: Q01DX001 (iv), vehicle: acid diluted with saline): 10 of 10 (2×)
- survivor count (dose: 25.31 mg/kg/injection, schedule: Q01DX001 (iv), vehicle: saline): 10 of 10
- survivor count (dose: 30.0 mg/kg/injection, schedule: Q01DX001 (ip), vehicle: saline): 10 of 10
- survivor count (dose: 30.0 mg/kg/injection, schedule: Q01DX001 (sc), vehicle: saline): 10 of 10
- survivor count (dose: 32.0 mg/kg/injection, schedule: Q01DX005 (iv), vehicle: clinical formulation): 7 of 8
- survivor count (dose: 32.0 mg/kg/injection, schedule: Q01DX005 (iv), vehicle: water): 8 of 8
- survivor count (dose: 32.0 mg/kg/injection, schedule: Q01DX009 (ip), vehicle: clinical formulation): 8 of 8
- survivor count (dose: 32.0 mg/kg/injection, schedule: Q01DX009 (ip), vehicle: water): 8 of 8
- survivor count (dose: 33.7 mg/kg/injection, schedule: Q01DX001 (iv), vehicle: other): 6 of 10 and 8 of 10
- survivor count (dose: 33.7 mg/kg/injection, schedule: Q01DX001 (iv), vehicle: saline): 10 of 10
- survivor count (dose: 33.75 mg/kg/injection, schedule: Q01DX001 (ip), vehicle: saline): 10 of 10
- survivor count (dose: 33.75 mg/kg/injection, schedule: Q01DX001 (iv), vehicle: acid diluted with saline): 10 of 10 (2×)
- survivor count (dose: 33.75 mg/kg/injection, schedule: Q01DX001 (iv), vehicle: saline): 10 of 10
- survivor count (dose: 38.9 mg/kg/injection, schedule: Q01DX001 (ip), vehicle: acid diluted with saline): 10 of 10
- survivor count (dose: 38.9 mg/kg/injection, schedule: Q01DX001 (sc), vehicle: acid diluted with saline): 10 of 10
- survivor count (dose: 45.0 mg/kg/injection, schedule: Q01DX001 (ip), vehicle: saline): 10 of 10
- survivor count (dose: 45.0 mg/kg/injection, schedule: Q01DX001 (iv), vehicle: acid diluted with saline): 8 of 10 and 10 of 10 (2×)
- survivor count (dose: 45.0 mg/kg/injection, schedule: Q01DX001 (iv), vehicle: other): 2 of 10 and 5 of 10
- survivor count (dose: 45.0 mg/kg/injection, schedule: Q01DX001 (iv), vehicle: saline): 10 of 10
- survivor count (dose: 50.2 mg/kg/injection, schedule: Q01DX001 (ip), vehicle: saline): 10 of 10
- survivor count (dose: 50.2 mg/kg/injection, schedule: Q01DX001 (sc), vehicle: saline): 10 of 10
- survivor count (dose: 60.0 mg/kg/injection, schedule: Q01DX001 (ip), vehicle: saline): 5 of 5
- survivor count (dose: 60.0 mg/kg/injection, schedule: Q01DX001 (iv), vehicle: acid diluted with saline): 1 of 1, 10 of 10, 5 of 5
- survivor count (dose: 60.0 mg/kg/injection, schedule: Q01DX001 (iv), vehicle: other): 0 of 10
- survivor count (dose: 60.0 mg/kg/injection, schedule: Q01DX001 (iv), vehicle: saline): 5 of 10, 10 of 10, 8 of 8
- survivor count (dose: 64.0 mg/kg/injection, schedule: Q01DX005 (iv), vehicle: clinical formulation): 0 of 8
- survivor count (dose: 64.0 mg/kg/injection, schedule: Q01DX005 (iv), vehicle: water): 0 of 8
- survivor count (dose: 64.0 mg/kg/injection, schedule: Q01DX009 (ip), vehicle: clinical formulation): 7 of 8
- survivor count (dose: 64.0 mg/kg/injection, schedule: Q01DX009 (ip), vehicle: water): 8 of 8
- survivor count (dose: 64.8 mg/kg/injection, schedule: Q01DX001 (ip), vehicle: acid diluted with saline): 10 of 10
- survivor count (dose: 64.8 mg/kg/injection, schedule: Q01DX001 (sc), vehicle: acid diluted with saline): 10 of 10
- survivor count (dose: 80.0 mg/kg/injection, schedule: Q01DX001 (iv), vehicle: acid diluted with saline): 6 of 6
- survivor count (dose: 80.0 mg/kg/injection, schedule: Q01DX001 (iv), vehicle: other): 0 of 10
- survivor count (dose: 80.0 mg/kg/injection, schedule: Q01DX001 (iv), vehicle: saline): 0 of 10, 1 of 1, 10 of 10
- survivor count (dose: 83.6 mg/kg/injection, schedule: Q01DX001 (ip), vehicle: saline): 10 of 10
- survivor count (dose: 83.6 mg/kg/injection, schedule: Q01DX001 (sc), vehicle: saline): 10 of 10
- survivor count (dose: 106.7 mg/kg/injection, schedule: Q01DX001 (iv), vehicle: saline): 0 of 10
- survivor count (dose: 108.0 mg/kg/injection, schedule: Q01DX001 (ip), vehicle: acid diluted with saline): 10 of 10
- survivor count (dose: 108.0 mg/kg/injection, schedule: Q01DX001 (sc), vehicle: acid diluted with saline): 10 of 10
- survivor count (dose: 128.0 mg/kg/injection, schedule: Q01DX009 (ip), vehicle: clinical formulation): 4 of 8
- survivor count (dose: 128.0 mg/kg/injection, schedule: Q01DX009 (ip), vehicle: water): 1 of 8
- survivor count (dose: 139.0 mg/kg/injection, schedule: Q01DX001 (ip), vehicle: saline): 10 of 10
- survivor count (dose: 139.0 mg/kg/injection, schedule: Q01DX001 (sc), vehicle: saline): 10 of 10
- survivor count (dose: 180.0 mg/kg/injection, schedule: Q01DX001 (ip), vehicle: acid diluted with saline): 1 of 10
- survivor count (dose: 180.0 mg/kg/injection, schedule: Q01DX001 (sc), vehicle: acid diluted with saline): 10 of 10
- survivor count (dose: 232.0 mg/kg/injection, schedule: Q01DX001 (ip), vehicle: saline): 0 of 10 and 1 of 10
- survivor count (dose: 232.0 mg/kg/injection, schedule: Q01DX001 (sc), vehicle: saline): 10 of 10
- survivor count (dose: 300.0 mg/kg/injection, schedule: Q01DX001 (ip), vehicle: acid diluted with saline): 0 of 10
- survivor count (dose: 300.0 mg/kg/injection, schedule: Q01DX001 (sc), vehicle: acid diluted with saline): 0 of 10 and 6 of 10
- survivor count (dose: 387.0 mg/kg/injection, schedule: Q01DX001 (ip), vehicle: saline): 0 of 10
- survivor count (dose: 387.0 mg/kg/injection, schedule: Q01DX001 (sc), vehicle: saline): 0 of 10 and 1 of 10
- survivor count (dose: 500.0 mg/kg/injection, schedule: Q01DX001 (ip), vehicle: acid diluted with saline): 0 of 10 and 0 of 2
- survivor count (dose: 500.0 mg/kg/injection, schedule: Q01DX001 (sc), vehicle: acid diluted with saline): 0 of 10 and 1 of 10
- survivor count (dose: 645.0 mg/kg/injection, schedule: Q01DX001 (ip), vehicle: saline): 0 of 10 and 0 of 9
- survivor count (dose: 645.0 mg/kg/injection, schedule: Q01DX001 (sc), vehicle: saline): 0 of 10
